No constants are given. Whether binding was seen depends on the method and setting. Some entries that bind do so weakly or less than the wild type.

Here are results for seven molecules from patent US20250249092A1 (TORAY INDUSTRIES, published 2025).

The target of experiment [1] is T1, CAPRIN-1 protein on the cell membrane surface of cancer cells (UniProt Q14444).
T1 sequence (looked up): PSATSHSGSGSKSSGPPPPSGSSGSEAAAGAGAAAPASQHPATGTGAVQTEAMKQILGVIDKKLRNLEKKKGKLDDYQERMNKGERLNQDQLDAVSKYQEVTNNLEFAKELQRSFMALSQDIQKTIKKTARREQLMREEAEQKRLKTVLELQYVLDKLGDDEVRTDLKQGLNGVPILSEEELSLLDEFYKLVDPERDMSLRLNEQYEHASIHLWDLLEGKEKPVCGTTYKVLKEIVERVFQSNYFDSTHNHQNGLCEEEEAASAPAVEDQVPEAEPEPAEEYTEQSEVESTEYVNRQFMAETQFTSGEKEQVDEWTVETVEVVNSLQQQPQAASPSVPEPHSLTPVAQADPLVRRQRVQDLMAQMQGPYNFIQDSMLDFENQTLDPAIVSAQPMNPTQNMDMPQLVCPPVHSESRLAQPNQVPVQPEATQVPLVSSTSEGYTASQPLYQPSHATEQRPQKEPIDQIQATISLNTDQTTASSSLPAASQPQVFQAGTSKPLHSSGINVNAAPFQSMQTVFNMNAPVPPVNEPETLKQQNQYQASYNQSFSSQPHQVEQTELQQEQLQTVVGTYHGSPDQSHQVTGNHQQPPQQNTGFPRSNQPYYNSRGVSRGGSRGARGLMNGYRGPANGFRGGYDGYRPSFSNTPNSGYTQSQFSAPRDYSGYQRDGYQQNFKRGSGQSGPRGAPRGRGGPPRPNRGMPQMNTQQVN
The experiment can be described thus: flow cytometry. For orientation: In flow cytometry, cells or beads pass a laser one at a time.

The target of a further experiment is T2, CAPRIN-1 protein (UniProt Q14444).
T2 sequence (looked up): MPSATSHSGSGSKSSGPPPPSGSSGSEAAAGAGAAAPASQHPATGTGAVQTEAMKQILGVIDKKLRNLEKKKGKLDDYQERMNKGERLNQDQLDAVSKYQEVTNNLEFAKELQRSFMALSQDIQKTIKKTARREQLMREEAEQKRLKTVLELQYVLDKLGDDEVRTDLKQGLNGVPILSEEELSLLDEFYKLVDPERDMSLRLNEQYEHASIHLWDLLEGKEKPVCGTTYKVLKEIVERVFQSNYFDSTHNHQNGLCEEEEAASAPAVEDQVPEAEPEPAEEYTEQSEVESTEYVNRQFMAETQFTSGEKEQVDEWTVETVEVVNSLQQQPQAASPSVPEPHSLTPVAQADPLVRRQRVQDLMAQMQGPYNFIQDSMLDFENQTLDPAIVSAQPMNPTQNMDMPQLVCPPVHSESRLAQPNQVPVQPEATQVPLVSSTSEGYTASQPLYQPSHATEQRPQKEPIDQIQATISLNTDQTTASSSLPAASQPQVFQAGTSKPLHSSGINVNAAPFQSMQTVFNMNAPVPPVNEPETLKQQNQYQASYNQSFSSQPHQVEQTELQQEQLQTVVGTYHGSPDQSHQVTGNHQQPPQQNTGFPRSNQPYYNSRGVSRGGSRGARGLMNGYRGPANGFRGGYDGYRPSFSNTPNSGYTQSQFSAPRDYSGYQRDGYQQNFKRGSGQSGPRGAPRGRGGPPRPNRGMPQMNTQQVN
The experiment in a line: ELISA. For orientation: ELISA stands for enzyme-linked immunosorbent assay.

B1: Conjugate 116 (antibody, human IgG1, V domains shown)
VH: DAELVKPGASVKISCKASGYTFTDHSIHWVQQKPEQGLEWIGYISPGNGNIKYNEKFKGKATLTADKSSSTAYMQLNSLTSEDSAVYFCKRSLGRGGPYYFDYWGQGTTVTVSS
VL: DIVLTQAAPSLPVTPGESVSISCRSSKSLLHSNGNTYLYWFLQRPGQSPQLLIYRMSNLASGVPDRFSGSGSGTAFTLRISRVEAEDVGVYYCMQHREYPVTFGSGPN
With B1, the binding entry (in experiment [1]; with CAPRIN-1 protein) was “binds” in each case.

B2: Conjugate 26 (antibody, human IgG1, V domains shown)
VH: EQSLVESGGGLVQPGGSLRLSCAASGFSLSSHSLGWVRQAPGKGLEWIGDIRSGGSAYYANWAKGRFTISRDNSKNTLYLQMNSLRAEDTAVYYCTRTNGPSDLTNRLDLWGQGTLVTVSS
VL: QVLTQSPSSLSASVGDRVTINCQASQSLYNNENLAWFQQKPGKVPKRLIYGASTLASGVSSRFSGSGSGTEFTLTISSLQCEDFAIYYCLGEFSCGSADCFAFGGGTKVEIK
notes: humanized antibody #6 (V regions of #2; human IgG1 S239D/I332E) + resiquimod derivative, SATA and SMCC linkers
On to B2, for which the binding entry (in experiment [1]; with CAPRIN-1 protein) was “binds” each time.

B3: Conjugate 34 (antibody, V domains shown)
VH: EQSLVESGGGLVQPGGSLRLSCAASGFSLSSHSLGWVRQAPGKGLEWIGDIRSGGSAYYANWAKGRFTISRDNSKNTLYLQMNSLRAEDTAVYYCTRTNGPSDLTNRLDLWGQGTLVTVSS
VL: QVLTQSPSSLSASVGDRVTINCQASQSLYNNENLAWFQQKPGKVPKRLIYGASTLASGVSSRFSGSGSGTEFTLTISSLQCEDFAIYYCLGEFSCGSADCFAFGGGTKVEIK
notes: mouse chimeric antibody #2 (mouse IgG constant regions) + resiquimod derivative, SATA and SMCC linkers
B3: the binding entry (in experiment [1]; with CAPRIN-1 protein) was “binds” in each case.

B4: Conjugate 30 (antibody, V domains shown)
VH: EQSLVESGGGLVQPGGSLRLSCAASGFSLSSHSLGWVRQAPGKGLEWIGDIRSGGSAYYANWAKGRFTISRDNSKNTLYLQMNSLRAEDTAVYYCTRTNGPSDLTNRLDLWGQGTLVTVSS
VL: QVLTQSPSSLSASVGDRVTINCQASQSLYNNENLAWFQQKPGKVPKRLIYGASTLASGVSSRFSGSGSGTEFTLTISSLQCEDFAIYYCLGEFSCGSADCFAFGGGTKVEIK
notes: mouse chimeric antibody #2 (mouse IgG constant regions) + resiquimod, MC-Val-Cit-PAB linker
As to B4, the binding entry (in experiment [1]; with CAPRIN-1 protein) was “binds” in each case.

B5: Conjugate 111 (antibody, human IgG1, V domains shown)
VH: AVTLDESGGGLQTPGGALSLVCKASGFTFSGYDMLWVRQAPGKGLEWVAGIGSTGGGTDYGAAVKGRATISRDNGQSTVRLQLNNLRAEDTATYYCAKVAGGCNSGYCRDSPGSIDAWGHGTEVIVS
VL: AVTQQPASVSANPGETVKITCSGGGSRNYYGWYQQKSPGSVPVTVIYYDDQRPSNIPSRFSGALSGSTSTLTITGVQADDEAVYFCGSADSNTYEGSFGAGTTLTVL
As to B5, the binding result (in experiment [1]; with CAPRIN-1 protein) was “binds” each time.

B6: Conjugate 121 (antibody, human IgG1, V domains shown)
VH: EVQLHQFGAELVKPGASVKISCKASGYTFTDYNMDWVKQSHGKSLEWIGDINPNYDSTSYNQKFKGKATLTVDKSSSTAYMELRSLTSEDTAVYYCARSRSYDYEGFAYWGQGTLVTVSA
VL: DIQMTQSPASLSASVGETVTITCRASGNIHNYLAWYQQKQGKSPQLLVYNAKTLADGVPSRFSGSGSGTQYSLKINSLQPEDFGSYYCQHFWSTLTFGAGTKLELKR
On to B6, for which the binding entry (in experiment [1]; with CAPRIN-1 protein) was “binds” in each case.

B7: Conjugate 115 (antibody, human IgG1, V domains shown)
VH: GAELVRSGASVKMSCKASGYSFTDYNMYWVKQTPGQGLEWIGYIYPGNGGTNYNQKFKGKATLTADTSSSTAYMQISSLTSEDSAVYFCARDYDDGGYAMDYWGQGTTVTVSS
VL: DIQMTQSPASLSASVGETVTITCRASGNIHNYLTWYQQKQGKSPQLLVYNAKTLADGVPSRFSGSGSGTQYSLKINRLQPEDFGSYYCQHFWNIPWTFGGGTKLNSR
As for B7, the binding result (in experiment [1]; with CAPRIN-1 protein) was “binds” throughout.
